Data taken from PMC12040169 (PLOS Biology, 2025).
This is one part of the list.

Test system: T1, CTL2-GFP (C. trachomatis L2/434/Bu, GFP-expressing)
T1 construct: L2/434/Bu, GFP-expressing
Parameters: species or system HeLa; Intracellular C. trachomatis growth in HeLa cells, bulk GFP fluorescence relative to DMSO
Settings: bulk GFP, single well; 28.5 h, 10 µM; inhibitor

Row | Structure (SMILES) | % of control remaining [%]
1 | Cc1ccc(CS(=O)(=O)N(CCO)C2CCC2)c(F)c1 [CBK304101] | 162.452
2 | O=C(NC(S(=O)O)C(F)(F)F)OCc1ccccc1 (centres unmarked) [CBK018979] | 145.536
3 | NS(=O)(=O)c1ccc(-c2ccc(/C=C3/SC(=S)N(C4CCCCC4)C3=O)o2)cc1 [CBK263127] | 100
4 | N=C(NC(=S)Nc1ccccc1)N1CCN(Cc2ccccc2)CC1 [CBK267878] | 105.008
5 | COC(=O)c1ccc(N2CCN(Cc3nnnn3C3CC3)C(C)C2)cc1 (centres unmarked) [CBK306129] | 77.8727
6 | Cc1ccc(C2CC(=O)Nc3nc(-c4ccccc4)[nH]c(=O)c32)c(C)c1 (centres unmarked) [CBK287998] | 119.144
7 | CCN1CCN(C(=O)Cc2cn(C)c3ccccc23)CC1 [CBK200254] | 129.771
8 | Cc1cc(C)n(CCNC2CCN(c3ccccc3C)CC2)c(=O)n1 [CBK306848] | 148.173
9 | CC(=O)N1CCN(C(=O)c2cnc(-c3ccc(Cl)cc3)c(-c3ccco3)c2)CC1 [CBK037518] | 110.353
10 | C[S+]([O-])CC(O)(c1ccc(F)cc1)C1CC1 (centres unmarked) [CBK025846] | 105.715
11 | CN(CCN(C)/N=C/c1c2ccccc2cc2ccccc12)/N=C/c1c2ccccc2cc2ccccc12 [CBK262039] | 100
12 | CN(C(=O)CSc1ncccc1C#N)c1ccccc1 [CBK288044] | 166.226
13 | CC(C)Nc1nccnc1OCc1ccsc1 [CBK115646] | 155.098
14 | O=C(C1=C(O)C(=O)N(c2ccc([N+](=O)[O-])cc2)C1c1ccccc1)c1ccccc1 (centres unmarked) [CBK263787] | 125.903
15 | CCCN(C)Cc1ccc(-c2cn(CC(=O)NCc3ccc4c(c3)OC(F)(F)O4)nn2)cc1 [CBK166361] | 153.679
16 | O=C(NC1CCN(CC2(c3ccccc3)CC2)CC1)C1CCC1 [CBK285322] | 146.441
17 | CC(C)C(=O)Nc1cc2cccnc2c(-c2ccccc2)n1 [CBK081287] | 108.709
18 | Cc1nccn1CCCC(=O)NCC1(c2ccccc2F)CCCC1 [CBK281370] | 95.0258
19 | c1ccc(-c2ccno2)c(OCc2ccc(-c3nccnc3-c3nnn[nH]3)cc2)c1 [CBK050817] | 147.824
20 | CCC(CC)C(=O)N(C)c1c(C)nc2c(OCC(=O)c3ccc(F)cc3)cccn12 [CBK147239] | 111.231
21 | O[C@@]1(c2ccccn2)CC[C@H]2CN(Cc3ccccc3F)C[C@H]21 [CBK283001] | 114.511
22 | O=C1CN(c2ccccc2)C(=O)N1c1ccccc1 [CBK116496] | 121.864
23 | COc1ccc(NS(=O)(=O)c2ccc(OCC(=O)N3CCN(C)CC3)cc2)cc1Cl [CBK269565] | 143.592
24 | CCOC(=O)c1[nH]c(C)c(C(=O)N/N=C/c2ccc(-c3ccc(Cl)cc3)o2)c1C [CBK262503] | 100
25 | COC(=O)c1ccc(S(=O)(=O)n2ccn(-c3cccc(C(F)(F)F)c3)c2=O)n1C [CBK106594] | 113.054

Row | Structure (SMILES) | % of control remaining [%]
26 | Cc1cc(OC(F)(F)F)ccc1NS(=O)(=O)c1cnn(-c2ccccc2)c1C [CBK062354] | 70.9071
27 | CN1CCN(C(=O)Cn2cc(C(=O)NC3CCCCC3)ccc2=O)C(c2ccccc2)C1 (centres unmarked) [CBK286102] | 127.054
28 | C[C@H]1CN2C[C@H](O)CC2CN1Cc1cccn1-c1ccc(F)cc1 (some centres unmarked) [CBK285465] | 149.457
29 | C#CCNS(=O)(=O)c1cccc(C(=O)N2CCOC(CC(=O)OC)C2)c1 (centres unmarked) [CBK306138] | 142.26
30 | Cn1ccnc1C(NC(=O)N1CCOCC1)c1ccc(F)c(F)c1 (centres unmarked) [CBK283781] | 146.488
31 | CNCCOCC(O)CSc1ccccc1 (centres unmarked) [CBK262704] | 109.859
32 | CC1CCc2c(C(=O)N(C)CC(=O)NC(C)(C)C)csc2C1 (centres unmarked) [CBK305002] | 123.04
33 | CCN(CC)CCN(C)C1CCN(C)CC1 [CBK261917] | 107.733
34 | CC(=O)C1=C(O)C(=O)N(CCC(=O)O)C1c1ccccc1 (centres unmarked) [CBK286763] | 133.013
35 | COc1cc(CN2CCC(N3CCCCCC3)CC2)ccc1OCc1ccccc1 [CBK264709G] | 100
36 | COc1ccc(C(=O)NC(=N)NCCc2c[nH]c3ccccc23)cc1 [CBK267840] | 107.899
37 | COc1ccc(C(NC(=O)C2CCN(Cc3c[nH]c4ccccc34)CC2)c2ccccn2)cc1 (centres unmarked) [CBK148033] | 104.089
38 | Cc1nc(N2CCOCC2)cc(N2CCN(C(=O)C3CCCC3)CC2)n1 [CBK307602] | 126.859
39 | CS(=O)(=O)N1CCCCCC1c1cc(-c2ccc(F)cc2)no1 (centres unmarked) [CBK284669] | 92.6542
40 | Cc1ccc(CN(C(=O)/C=C/C(=O)O)C(C)(C)C)cc1 [CBK286799] | 128.051
41 | CN(C)CC1CCCN(C(=O)C2C3CCCCC32)C1 (centres unmarked) [CBK282002] | 151.185
42 | O[C@@]1(c2ccccn2)CC[C@H]2CN(Cc3ccc(F)c(F)c3)C[C@H]21 [CBK285456] | 95.0628
43 | CCn1c(CN2CC(n3nc(C)cc3C)C2)nc2c(F)cccc21 [CBK306220] | 114.378
44 | CCOCCCNC(=O)c1cnn2c(C)c(CC)c(C)nc12 [CBK162129] | 140.064
45 | COc1cccc(OCC(=O)NCC(c2ccsc2)N2CCCC2)c1 (centres unmarked) [CBK304630] | 90.7488
46 | c1cnc2c(OCc3nc4ccccc4[nH]3)cccc2c1 [CBK268556] | 91.6229
47 | C[C@@H](Nc1nc(-c2ccccc2)cnc1N)c1ccccc1 [CBK063728] | 101.594
48 | O=C(CN1C(=O)c2ccccc2C1=O)Nc1cccc2ncccc12 [CBK262761] | 100
49 | Cn1c(CN2CCN(C(=O)c3ccco3)CC2)nc2cc([N+](=O)[O-])ccc21 [CBK268473] | 80.2133
50 | CCCNc1cc(C)nc2cc(-c3ccc(OC)c(OC)c3)nn12 [CBK287805] | 137.471

Some of these compounds in order of formula weight, rising:
Row | Structure (SMILES) | % of control remaining [%]
34 | CC(=O)C1=C(O)C(=O)N(CCC(=O)O)C1c1ccccc1 (centres unmarked) [CBK286763] | 133.013
1 | Cc1ccc(CS(=O)(=O)N(CCO)C2CCC2)c(F)c1 [CBK304101] | 162.452
28 | C[C@H]1CN2C[C@H](O)CC2CN1Cc1cccn1-c1ccc(F)cc1 (some centres unmarked) [CBK285465] | 149.457
